Test results: PubChem BioAssay AID493014 (National Center for Advancing Translational Sciences (NCATS), 2011)
The other results are listed elsewhere or left out. Further columns of the screen follow, without active or inactive calls. The list favours compounds with an active or inconclusive main result. Potencies come from curve fits of mixed quality, noted in brackets.

Assay: qHTS Assay to Find Inhibitors of Chronic Active B-Cell Receptor Signaling
Details: ABC-DLBCL IkBa-CBG/CBR reporter, luminescence ratio (green luciferase fused to IkBa over red control in TMD8 lymphoma cells), 4 h
Procedure, shortened: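 Cell line TMD8 (human ABC DLBCL), stably expressing tet-inducible CBG68-IkBa fusion and CBR; IMDM/0.5% FBS; cpd up to 46 uM; dox induction, 4 h, 37C/5% CO2; dual luminescence; green/red ratio; MG132 control.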

[1] = measured here: CBR red luminescence, cell number

Compound | AC50 (measured here: IkBa-CBG green luminescence) | AC50 [1]
COc1ccc([C@@H]2[C@@H]3C(=O)N(C(C)(C)C)C(=O)[C@@H]3[C@]3(Cc4ccccc4)C(=O)N(c4cccc(Cl)c4)C(=O)N23)cc1 | 29.1 µM [rising, partial curve, poor fit] | –
Cc1cc(C(=O)CCl)c(C)n1-c1cccc([N+](=O)[O-])c1 | – | 12.6 µM [falling, partial curve]
CCN(CC)c1ccc(C2Nc3cccc4cccc(c34)N2)cc1 | – | 7.08 µM [falling, full curve, poor fit]
O=C(NNc1cccc(Cl)n1)c1c(F)cccc1F | – | 35.5 µM [rising, single point]
Cc1cccc(NC(=O)Nc2ccc(C)c(C)c2)n1 | – | 0.461 µM [rising, full curve, poor fit]
Cc1cc2c(c(=O)o1)C(Cc1ccccc1)C(C#N)=C(N)O2 (configuration not stated) | – | 0.291 µM [falling, full curve, poor fit]
CC1=NNC(=O)C1CCC(=O)N/N=C\c1ccc(Cl)c(Cl)c1 (configuration not stated) | – | 12.6 µM [falling, partial curve]
CCOc1cc(N2CCOCC2)c(OCC)cc1NC(=O)c1ccccc1C | – | 6.31 µM [rising, full curve]
CCc1ccc(OC(=O)c2cncc(Br)c2)cc1 | – | 35.5 µM [falling, single point]
Cc1cc(NS(=O)(=O)c2ccc(NC(=S)Nc3ccc(Cl)cc3C)cc2)no1 | – | 35.5 µM [falling, single point]
CN(C)c1ccc(S(=O)(=O)N(C)C)cc1[N+](=O)[O-] | – | 20 µM [rising, single point]
N#C/C(=C\c1ccc(F)cc1)c1n[nH]c(Cn2cncn2)n1 | – | 29.1 µM [falling, single point]
Nn1c(SCc2ccccc2F)nnc1-c1ccccn1 | – | 31.6 µM [falling, single point]
O=C(O)c1cccc(NC(=S)NC(NC(=O)c2ccccc2[N+](=O)[O-])C(Cl)(Cl)Cl)c1 (configuration not stated) | – | 0.0891 µM [falling, full curve, poor fit]
CC#CCN1c2ccccc2[C@]23C[C@@H](C(=O)OC)N(C(=O)c4ccco4)C2=NC(C(=O)OC)=C(C(=O)OC)[C@H]13 | – | 6.31 µM [rising, single point]
COc1ccc(C2(CNC(=O)c3cccc([N+](=O)[O-])c3)CCOCC2)cc1 | – | 13 µM [rising, partial curve]
Cc1ccc(S(=O)(=O)N2CCCOC2CNC(=O)C(=O)NCc2cccs2)cc1 (configuration not stated) | – | 20.6 µM [rising, partial curve]

Look-ups from the list:
Entry for Cc1cc(NS(=O)(=O)c2ccc(NC(=S)Nc3ccc(Cl)cc3C)cc2)no1 under AC50 [1]: 35.5 µM [falling, single point]
Entry for COc1ccc(C2(CNC(=O)c3cccc([N+](=O)[O-])c3)CCOCC2)cc1 under AC50 [1]: 13 µM [rising, partial curve]
